# Literature values in patent US8859560B2, “Treating attention deficit hyperactivity disorder with NHE inhibitors” (The Research Foundation of State University of New York, priority 2012, dated 2014).
# At least one structure is not confirmed: it was looked up by name or label, or the drawing left a doubt.
# Tested on: sodium/hydrogen exchanger (NHE) subtypes
# Conditions: prior knowledge from Masereel et al. 2003
smiles,measurement,value
NC(=NCc1ccccc1)NC(=O)c1nc(Cl)c(N)nc1N [benzamil],NHE subtype selectivity of inhibition,limited NHE subtype selectivity
